These are yes or no findings as the source states them, for the method shown. Some results given as binding are weak or reduced against the parent protein; the word gives no strength.
Target: nuclear factor kappa B (NF-κB)/RelA (mouse (endogenous in primary murine hepatocytes)) (UniProt Q04207)
Test: Re-ChIP (sequential chromatin immunoprecipitation); primary murine hepatocytes treated with HGF (20 ng/ml), harvested at indicated time points; Re-ChIP with indicated antibodies; proximal eotaxin promoter amplified

The chains behind the UniProt entries cited, without tags or fusion partners.
UniProt Q04207: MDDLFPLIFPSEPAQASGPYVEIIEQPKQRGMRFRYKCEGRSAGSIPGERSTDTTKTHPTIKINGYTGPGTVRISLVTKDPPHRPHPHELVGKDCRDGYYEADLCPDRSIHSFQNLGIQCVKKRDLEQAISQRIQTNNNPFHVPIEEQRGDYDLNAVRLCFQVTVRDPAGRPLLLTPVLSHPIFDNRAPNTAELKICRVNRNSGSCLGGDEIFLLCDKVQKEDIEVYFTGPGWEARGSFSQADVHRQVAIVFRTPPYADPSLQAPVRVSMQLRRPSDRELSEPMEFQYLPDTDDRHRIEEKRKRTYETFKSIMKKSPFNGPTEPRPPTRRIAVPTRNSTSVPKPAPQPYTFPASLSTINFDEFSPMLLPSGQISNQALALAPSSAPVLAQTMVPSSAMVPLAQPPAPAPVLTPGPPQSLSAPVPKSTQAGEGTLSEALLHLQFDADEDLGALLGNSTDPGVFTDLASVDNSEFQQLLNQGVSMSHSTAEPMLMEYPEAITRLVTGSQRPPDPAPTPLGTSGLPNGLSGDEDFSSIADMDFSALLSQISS
UniProt Q3TKT4: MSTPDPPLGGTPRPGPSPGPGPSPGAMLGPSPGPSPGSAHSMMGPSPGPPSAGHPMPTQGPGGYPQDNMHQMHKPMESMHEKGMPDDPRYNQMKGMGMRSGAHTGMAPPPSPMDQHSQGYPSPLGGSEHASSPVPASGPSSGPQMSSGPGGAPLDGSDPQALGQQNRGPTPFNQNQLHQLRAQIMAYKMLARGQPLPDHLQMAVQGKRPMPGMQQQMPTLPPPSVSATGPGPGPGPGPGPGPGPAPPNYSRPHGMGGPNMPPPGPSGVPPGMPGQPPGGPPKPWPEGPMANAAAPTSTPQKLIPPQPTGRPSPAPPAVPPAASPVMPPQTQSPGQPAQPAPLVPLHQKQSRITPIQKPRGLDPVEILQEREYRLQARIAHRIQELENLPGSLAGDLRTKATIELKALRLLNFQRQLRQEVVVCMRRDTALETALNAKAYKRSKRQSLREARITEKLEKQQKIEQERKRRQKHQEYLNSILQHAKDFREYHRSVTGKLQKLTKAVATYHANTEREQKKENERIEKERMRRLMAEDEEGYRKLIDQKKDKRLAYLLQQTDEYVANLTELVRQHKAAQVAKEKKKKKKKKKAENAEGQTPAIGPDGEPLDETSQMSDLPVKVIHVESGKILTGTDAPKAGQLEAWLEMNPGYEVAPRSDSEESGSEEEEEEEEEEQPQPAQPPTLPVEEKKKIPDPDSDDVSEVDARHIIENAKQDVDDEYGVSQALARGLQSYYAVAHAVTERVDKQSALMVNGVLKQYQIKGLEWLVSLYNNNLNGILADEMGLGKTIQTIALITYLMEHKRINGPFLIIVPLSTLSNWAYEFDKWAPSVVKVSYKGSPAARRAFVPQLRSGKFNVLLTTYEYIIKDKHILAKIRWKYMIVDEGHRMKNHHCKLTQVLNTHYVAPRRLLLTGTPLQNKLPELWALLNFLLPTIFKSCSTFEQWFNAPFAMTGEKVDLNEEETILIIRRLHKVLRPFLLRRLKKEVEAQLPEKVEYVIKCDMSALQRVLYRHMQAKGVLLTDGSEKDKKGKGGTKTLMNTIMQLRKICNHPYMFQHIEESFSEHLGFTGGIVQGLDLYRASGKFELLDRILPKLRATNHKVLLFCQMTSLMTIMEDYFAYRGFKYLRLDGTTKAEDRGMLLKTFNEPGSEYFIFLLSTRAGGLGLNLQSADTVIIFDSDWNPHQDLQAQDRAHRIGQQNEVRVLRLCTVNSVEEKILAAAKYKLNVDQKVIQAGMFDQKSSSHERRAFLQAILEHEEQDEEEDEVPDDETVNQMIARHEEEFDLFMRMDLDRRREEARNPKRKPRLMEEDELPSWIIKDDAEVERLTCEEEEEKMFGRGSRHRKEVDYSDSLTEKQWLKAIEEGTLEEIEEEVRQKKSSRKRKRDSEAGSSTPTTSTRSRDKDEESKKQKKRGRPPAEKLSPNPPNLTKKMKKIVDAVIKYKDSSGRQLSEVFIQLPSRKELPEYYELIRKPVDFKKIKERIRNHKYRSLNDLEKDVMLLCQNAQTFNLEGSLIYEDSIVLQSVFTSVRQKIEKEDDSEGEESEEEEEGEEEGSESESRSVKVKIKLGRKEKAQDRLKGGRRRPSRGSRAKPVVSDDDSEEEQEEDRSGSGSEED

binding: binds
Substance: Brahma-related gene 1 (Brg1) (from UniProt Q3TKT4 1-1613)

Source: article PMC9132924
